Measurements taken from publication PMC12548662.

Amino acid sequences for entries named in this document (tags omitted). A change or cut given only in a name is not applied to a line headed by its entry. Chains listed by the source or under a name are the forms on record and can include a tag or linker. Residues count along the entry.
UniProt P08238: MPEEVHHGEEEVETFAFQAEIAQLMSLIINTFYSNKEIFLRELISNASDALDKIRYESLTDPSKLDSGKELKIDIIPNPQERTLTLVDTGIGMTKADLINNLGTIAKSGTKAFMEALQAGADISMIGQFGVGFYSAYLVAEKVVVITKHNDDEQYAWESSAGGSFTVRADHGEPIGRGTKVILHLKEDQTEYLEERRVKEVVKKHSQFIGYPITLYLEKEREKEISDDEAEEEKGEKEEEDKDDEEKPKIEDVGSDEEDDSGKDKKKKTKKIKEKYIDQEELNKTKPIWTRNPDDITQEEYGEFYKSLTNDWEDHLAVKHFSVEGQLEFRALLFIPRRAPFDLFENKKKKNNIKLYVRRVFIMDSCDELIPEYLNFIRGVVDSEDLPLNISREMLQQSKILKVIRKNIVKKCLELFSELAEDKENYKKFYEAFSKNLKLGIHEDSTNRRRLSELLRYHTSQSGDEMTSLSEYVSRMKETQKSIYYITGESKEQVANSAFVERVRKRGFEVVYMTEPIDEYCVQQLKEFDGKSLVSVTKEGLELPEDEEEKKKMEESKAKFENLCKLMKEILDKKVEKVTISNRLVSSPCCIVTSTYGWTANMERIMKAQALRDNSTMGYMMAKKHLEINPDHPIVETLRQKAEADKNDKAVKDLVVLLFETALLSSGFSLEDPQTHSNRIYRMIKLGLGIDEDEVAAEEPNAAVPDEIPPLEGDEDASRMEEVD
exportin 2 isoform 2 (P55060-4, form named): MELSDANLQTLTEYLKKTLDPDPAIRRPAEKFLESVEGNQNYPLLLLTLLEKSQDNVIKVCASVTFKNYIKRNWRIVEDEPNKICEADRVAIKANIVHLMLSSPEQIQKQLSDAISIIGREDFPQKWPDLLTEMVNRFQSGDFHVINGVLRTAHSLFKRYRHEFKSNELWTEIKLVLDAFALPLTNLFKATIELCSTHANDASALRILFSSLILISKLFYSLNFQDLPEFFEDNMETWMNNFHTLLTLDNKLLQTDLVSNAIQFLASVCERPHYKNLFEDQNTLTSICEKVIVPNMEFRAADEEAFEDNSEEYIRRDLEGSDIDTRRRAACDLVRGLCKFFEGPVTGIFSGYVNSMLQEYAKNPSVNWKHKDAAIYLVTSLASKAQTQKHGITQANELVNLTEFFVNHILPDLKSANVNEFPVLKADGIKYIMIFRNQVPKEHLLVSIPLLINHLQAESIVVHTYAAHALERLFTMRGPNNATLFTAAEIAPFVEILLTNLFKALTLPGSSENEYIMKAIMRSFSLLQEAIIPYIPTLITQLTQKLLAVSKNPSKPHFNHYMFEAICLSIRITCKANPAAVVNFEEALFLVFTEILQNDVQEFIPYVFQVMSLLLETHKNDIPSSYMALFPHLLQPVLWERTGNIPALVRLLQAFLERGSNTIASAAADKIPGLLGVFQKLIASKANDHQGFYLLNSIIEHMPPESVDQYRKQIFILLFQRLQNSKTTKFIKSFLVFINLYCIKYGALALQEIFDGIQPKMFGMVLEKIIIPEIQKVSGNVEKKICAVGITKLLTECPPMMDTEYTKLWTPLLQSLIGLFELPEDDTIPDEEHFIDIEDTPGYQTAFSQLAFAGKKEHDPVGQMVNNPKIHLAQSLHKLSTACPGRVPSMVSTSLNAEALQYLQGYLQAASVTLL
ras responsive element binding protein 1 isoform 1 (Q92766-2, form named): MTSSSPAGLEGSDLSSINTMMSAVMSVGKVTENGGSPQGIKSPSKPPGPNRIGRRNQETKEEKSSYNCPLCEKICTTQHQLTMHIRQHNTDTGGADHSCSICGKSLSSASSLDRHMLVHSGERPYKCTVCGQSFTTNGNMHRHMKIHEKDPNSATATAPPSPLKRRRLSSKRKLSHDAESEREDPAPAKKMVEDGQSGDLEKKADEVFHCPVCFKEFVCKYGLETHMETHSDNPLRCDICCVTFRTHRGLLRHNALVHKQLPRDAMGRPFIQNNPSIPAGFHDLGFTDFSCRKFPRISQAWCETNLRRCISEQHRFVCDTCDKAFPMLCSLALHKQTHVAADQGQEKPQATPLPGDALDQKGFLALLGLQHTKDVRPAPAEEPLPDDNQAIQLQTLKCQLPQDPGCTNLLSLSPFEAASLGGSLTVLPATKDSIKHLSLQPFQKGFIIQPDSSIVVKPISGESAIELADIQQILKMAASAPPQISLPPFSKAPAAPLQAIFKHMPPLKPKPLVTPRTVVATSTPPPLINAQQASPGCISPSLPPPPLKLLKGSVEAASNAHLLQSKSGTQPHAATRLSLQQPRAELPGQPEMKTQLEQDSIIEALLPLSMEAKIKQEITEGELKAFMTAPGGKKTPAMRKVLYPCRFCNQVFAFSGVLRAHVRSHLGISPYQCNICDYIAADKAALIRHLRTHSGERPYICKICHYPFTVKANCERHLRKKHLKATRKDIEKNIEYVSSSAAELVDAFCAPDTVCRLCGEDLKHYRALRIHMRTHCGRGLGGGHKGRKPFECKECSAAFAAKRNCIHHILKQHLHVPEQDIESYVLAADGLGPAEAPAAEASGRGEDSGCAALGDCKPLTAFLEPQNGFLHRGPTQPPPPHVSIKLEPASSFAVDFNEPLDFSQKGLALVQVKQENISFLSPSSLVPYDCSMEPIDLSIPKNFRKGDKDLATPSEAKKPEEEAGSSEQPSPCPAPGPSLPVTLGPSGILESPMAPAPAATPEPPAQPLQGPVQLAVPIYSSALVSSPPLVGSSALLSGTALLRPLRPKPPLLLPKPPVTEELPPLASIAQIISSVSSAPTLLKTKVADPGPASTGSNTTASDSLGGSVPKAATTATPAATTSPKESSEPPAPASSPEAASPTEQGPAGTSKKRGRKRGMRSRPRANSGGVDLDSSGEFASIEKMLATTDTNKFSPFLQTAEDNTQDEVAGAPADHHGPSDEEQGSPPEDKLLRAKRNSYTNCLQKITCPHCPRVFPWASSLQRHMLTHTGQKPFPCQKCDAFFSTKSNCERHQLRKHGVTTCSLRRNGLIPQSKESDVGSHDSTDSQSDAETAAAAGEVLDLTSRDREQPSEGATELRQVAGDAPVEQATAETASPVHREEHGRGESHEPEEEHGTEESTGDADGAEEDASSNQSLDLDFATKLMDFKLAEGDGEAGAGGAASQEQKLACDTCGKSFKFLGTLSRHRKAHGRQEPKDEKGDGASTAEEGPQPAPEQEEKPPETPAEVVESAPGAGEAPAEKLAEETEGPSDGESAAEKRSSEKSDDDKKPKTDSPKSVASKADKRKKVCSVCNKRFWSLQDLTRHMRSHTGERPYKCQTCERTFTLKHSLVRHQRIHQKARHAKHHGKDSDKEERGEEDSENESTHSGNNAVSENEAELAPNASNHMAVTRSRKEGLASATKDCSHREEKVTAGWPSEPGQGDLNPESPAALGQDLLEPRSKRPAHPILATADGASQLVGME
UniProt P25705, residues 44-553: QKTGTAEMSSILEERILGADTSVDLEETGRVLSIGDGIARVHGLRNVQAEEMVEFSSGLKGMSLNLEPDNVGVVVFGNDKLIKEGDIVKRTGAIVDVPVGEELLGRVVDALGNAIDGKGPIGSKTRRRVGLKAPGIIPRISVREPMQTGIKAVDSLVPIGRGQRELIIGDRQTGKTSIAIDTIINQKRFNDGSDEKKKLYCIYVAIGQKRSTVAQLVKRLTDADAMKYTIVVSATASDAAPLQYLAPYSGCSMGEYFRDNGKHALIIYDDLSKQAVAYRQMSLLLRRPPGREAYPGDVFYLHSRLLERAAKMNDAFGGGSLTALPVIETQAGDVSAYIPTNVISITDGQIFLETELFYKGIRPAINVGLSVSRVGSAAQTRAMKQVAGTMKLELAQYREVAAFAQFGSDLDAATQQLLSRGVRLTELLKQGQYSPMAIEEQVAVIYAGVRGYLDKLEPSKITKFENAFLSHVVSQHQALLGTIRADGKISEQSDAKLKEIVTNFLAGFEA
poly rC binding protein 2 isoform c (Q15366-4, form named): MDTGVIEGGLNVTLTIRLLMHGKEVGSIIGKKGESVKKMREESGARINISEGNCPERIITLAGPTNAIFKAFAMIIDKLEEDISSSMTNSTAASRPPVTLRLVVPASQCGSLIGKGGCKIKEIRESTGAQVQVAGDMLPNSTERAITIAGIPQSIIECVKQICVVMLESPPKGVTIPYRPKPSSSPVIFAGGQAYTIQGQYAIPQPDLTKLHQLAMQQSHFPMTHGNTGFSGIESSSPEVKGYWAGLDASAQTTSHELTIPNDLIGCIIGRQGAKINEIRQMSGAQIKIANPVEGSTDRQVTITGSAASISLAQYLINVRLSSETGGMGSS
UniProt Q15365: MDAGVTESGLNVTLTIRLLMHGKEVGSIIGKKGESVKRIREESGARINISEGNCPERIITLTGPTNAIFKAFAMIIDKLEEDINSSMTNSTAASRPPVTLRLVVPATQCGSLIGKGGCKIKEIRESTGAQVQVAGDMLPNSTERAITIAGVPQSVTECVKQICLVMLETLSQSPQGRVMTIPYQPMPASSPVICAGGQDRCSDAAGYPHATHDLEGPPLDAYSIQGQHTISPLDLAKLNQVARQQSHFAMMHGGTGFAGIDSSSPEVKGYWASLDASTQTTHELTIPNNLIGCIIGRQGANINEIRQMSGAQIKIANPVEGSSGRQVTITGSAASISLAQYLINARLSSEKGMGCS
UniProt P61163: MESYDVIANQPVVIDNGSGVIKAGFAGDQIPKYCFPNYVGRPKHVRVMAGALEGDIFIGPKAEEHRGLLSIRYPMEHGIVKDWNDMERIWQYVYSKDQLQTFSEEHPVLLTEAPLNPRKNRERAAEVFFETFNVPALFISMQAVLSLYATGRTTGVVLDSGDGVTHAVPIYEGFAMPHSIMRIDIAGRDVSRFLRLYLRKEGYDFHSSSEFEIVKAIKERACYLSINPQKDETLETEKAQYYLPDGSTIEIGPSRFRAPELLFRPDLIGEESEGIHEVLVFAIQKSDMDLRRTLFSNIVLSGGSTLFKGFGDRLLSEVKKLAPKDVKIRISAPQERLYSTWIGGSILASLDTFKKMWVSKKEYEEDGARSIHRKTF

target: T1, SETD3 fused to the TurboID biotin ligase at either the N- or the C-terminus (human) (UniProt Q86TU7); experiment: proximity labelling; SETD3 fused to TurboID at the N- or C-terminus, both constructs co-transfected in HEK293T SETD3 KO cells for 48 h; 30 min with 50 µM biotin or PBS; biotinylated proteins enriched on streptavidin magnetic beads, on-bead trypsin digestion, nano-UPLC Q-TOF MS/MS
T1 sequence: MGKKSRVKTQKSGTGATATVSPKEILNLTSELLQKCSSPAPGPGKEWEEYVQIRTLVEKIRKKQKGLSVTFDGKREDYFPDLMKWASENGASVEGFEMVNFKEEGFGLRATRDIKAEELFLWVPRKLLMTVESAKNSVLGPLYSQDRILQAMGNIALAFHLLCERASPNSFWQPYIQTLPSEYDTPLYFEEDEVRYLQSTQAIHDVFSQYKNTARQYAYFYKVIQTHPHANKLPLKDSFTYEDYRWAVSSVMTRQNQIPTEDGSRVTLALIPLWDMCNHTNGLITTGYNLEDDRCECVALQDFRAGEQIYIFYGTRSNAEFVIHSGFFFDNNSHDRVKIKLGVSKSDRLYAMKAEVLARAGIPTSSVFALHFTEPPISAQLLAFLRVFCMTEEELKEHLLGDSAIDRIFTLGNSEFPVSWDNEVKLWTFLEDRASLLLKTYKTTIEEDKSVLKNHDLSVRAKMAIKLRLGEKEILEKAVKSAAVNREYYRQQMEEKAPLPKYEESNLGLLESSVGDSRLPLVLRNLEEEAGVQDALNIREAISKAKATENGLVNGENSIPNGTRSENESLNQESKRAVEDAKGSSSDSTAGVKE

| binding | Substance |
| --- | --- |
| binds | heat shock protein HSP 90 beta isoform a (from UniProt P08238 1-724) |
| binds | exportin 2 isoform 2 (from UniProt P55060-4 1-915) |
| binds | ras responsive element binding protein 1 isoform 1 (from UniProt Q92766-2 1-1742) |
| binds | eukaryotic initiation factor 4A I isoform 1 (from UniProt P60842-1 1-406) |

The remaining lines, values behind:

| Substance | binding |
| --- | --- |
| ATP synthase subunit alpha mitochondrial (from UniProt P25705-1 44-553) | binds |
| poly rC binding protein 2 isoform c (from UniProt Q15366-4 1-331) | binds |
| spliceosome RNA helicase DDX39B (from UniProt Q13838-1 1-428) | binds |
| poly rC binding protein 1 (from UniProt Q15365 1-356) | binds |
| alpha centractin (endogenous) (from UniProt P61163 1-376) | binds |

Results are given in words; binding and its absence hold for the method and conditions named. Binding seen in cells or lysates may run through a third protein. A yes stands for co-enrichment or nearness to the bait. Other partners may have been found. Sequences can lack the tags named with a protein.
